Molecular target: the molecule itself
Assay: gel mobility shift, TSEII probe, increasing recombinant STF-1 (test for a homodimeric form)

B1: STF-1 (somatostatin transcription factor-1), full length recombinant protein (other)
chain: MNSEEQYYAATQLYKDPCAFQRGPVPEFSANPPACLYMGRQPPPPPPPQFAGSLGTLEQGSPPDISPYEVPPLADDPAGAHLHHHLPAQLGLAHPPPGPFPNGTETGGLEEPSRVHLPFPWMKSTKAHAWKSQWAGGAYAAEPEENKRTRTAYTRAQLLELEKEFLFNKYISRPRRVELAVMLNLTERHIKIWFQNRRMKWKKEEDKKRSSGTTSGGGGGEEPEQDCAVTSGEELLALPPPPPPGGAVPSGVPAAAREGRLPSGLSASPQPSSIAPLRPQEPR
B1: no binding.

Reference: patent publication US5849493, “Screening assay for compounds stimulating somatostatin transcription factor -1 binding to an STF-1 binding site” (Research Development Foundation, dated 1997)
